Assay results: publication PMC7425433
Results are given in words; binding and its absence hold for the method and conditions named. Binding seen in cells or lysates may run through a third protein. Some entries that bind do so weakly or less than the wild type.

The chains behind the UniProt entries cited, without tags or fusion partners.
UniProt P11142: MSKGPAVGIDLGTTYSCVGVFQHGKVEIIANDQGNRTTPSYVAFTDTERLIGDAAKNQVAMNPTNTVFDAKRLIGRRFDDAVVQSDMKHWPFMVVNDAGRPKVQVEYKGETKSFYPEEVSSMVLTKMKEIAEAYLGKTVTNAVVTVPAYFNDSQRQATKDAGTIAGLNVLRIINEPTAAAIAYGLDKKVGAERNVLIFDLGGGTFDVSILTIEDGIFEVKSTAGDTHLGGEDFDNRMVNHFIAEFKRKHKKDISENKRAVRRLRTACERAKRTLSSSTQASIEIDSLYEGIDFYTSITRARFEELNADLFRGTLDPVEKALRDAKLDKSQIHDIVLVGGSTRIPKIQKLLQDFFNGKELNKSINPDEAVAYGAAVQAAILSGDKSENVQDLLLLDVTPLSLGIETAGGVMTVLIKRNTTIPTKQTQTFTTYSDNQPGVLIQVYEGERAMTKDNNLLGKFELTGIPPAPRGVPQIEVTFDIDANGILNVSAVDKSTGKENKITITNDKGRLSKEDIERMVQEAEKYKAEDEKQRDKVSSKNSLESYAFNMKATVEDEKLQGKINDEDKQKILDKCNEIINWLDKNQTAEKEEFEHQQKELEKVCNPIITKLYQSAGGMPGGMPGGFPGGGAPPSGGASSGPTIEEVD
UniProt Q92793: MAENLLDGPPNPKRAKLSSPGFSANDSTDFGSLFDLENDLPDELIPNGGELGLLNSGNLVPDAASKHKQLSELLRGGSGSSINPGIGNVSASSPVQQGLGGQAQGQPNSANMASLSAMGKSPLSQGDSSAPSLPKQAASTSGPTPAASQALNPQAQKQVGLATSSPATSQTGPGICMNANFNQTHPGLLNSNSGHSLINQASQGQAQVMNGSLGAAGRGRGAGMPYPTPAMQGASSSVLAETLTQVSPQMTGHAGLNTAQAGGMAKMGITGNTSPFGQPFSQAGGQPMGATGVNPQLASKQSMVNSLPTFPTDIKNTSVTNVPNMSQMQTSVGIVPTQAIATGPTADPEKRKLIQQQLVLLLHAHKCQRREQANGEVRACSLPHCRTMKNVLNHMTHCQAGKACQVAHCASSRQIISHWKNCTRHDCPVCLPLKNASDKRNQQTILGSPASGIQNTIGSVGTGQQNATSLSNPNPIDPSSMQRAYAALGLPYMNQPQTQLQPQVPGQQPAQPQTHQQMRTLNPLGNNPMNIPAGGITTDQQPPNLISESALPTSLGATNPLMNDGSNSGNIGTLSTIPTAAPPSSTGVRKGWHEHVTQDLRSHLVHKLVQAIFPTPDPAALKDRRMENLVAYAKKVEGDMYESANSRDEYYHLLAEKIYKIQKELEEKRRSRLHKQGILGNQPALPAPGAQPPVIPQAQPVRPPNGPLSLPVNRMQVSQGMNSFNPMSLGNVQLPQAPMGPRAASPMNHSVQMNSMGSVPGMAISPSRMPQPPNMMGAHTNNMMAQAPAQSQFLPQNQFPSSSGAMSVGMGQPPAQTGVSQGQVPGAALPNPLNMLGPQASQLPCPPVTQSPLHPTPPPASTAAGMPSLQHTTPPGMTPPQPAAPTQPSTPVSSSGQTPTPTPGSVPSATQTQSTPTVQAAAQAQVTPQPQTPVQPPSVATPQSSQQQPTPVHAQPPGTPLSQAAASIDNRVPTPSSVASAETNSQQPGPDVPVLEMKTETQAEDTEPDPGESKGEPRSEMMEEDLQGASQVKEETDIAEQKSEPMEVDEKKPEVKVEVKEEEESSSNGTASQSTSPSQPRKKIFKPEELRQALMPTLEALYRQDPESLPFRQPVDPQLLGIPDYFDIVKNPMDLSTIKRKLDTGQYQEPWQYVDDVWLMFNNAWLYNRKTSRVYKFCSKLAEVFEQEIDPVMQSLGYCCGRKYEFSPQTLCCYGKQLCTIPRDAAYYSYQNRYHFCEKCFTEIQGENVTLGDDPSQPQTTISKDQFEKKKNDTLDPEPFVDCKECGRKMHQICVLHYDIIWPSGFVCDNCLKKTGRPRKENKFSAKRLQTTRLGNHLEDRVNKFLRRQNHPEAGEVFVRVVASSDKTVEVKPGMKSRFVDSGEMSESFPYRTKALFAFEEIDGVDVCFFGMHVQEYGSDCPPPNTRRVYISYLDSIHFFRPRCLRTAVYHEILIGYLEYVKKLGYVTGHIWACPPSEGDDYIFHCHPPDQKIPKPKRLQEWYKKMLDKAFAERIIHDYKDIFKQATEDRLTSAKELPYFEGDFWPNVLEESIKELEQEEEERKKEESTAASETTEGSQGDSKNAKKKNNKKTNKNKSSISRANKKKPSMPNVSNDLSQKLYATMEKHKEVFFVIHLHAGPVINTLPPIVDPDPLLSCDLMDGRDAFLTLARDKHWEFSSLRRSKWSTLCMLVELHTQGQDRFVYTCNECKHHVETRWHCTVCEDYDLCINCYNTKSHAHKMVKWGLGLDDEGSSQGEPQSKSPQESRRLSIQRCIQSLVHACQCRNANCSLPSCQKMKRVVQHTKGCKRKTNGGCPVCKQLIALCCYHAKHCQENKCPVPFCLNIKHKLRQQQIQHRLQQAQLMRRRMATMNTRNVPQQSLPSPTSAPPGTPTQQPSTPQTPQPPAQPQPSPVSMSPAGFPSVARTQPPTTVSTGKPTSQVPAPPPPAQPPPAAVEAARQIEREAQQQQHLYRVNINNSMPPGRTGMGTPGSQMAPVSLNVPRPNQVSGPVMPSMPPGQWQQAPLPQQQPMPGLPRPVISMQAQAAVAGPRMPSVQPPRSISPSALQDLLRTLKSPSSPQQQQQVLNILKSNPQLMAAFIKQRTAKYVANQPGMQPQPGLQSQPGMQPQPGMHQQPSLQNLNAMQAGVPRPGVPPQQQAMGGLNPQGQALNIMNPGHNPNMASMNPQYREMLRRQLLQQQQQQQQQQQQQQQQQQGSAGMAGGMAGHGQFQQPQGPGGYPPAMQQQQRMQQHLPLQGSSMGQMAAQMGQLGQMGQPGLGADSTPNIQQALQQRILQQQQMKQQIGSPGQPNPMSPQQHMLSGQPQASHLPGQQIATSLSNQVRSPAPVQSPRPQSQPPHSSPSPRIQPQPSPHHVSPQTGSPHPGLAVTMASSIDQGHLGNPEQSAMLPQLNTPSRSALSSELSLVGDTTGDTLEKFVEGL

Legend:
[1] = biological target: T1, HSD17B4, wild type, expressed construct of the mutant panel (Figure 5E) (human) (UniProt P51659); test: co-IP; IP-western of HSD17B4 wild type and alanine mutants, blotted for HSC70; cell line not stated
T1 sequence: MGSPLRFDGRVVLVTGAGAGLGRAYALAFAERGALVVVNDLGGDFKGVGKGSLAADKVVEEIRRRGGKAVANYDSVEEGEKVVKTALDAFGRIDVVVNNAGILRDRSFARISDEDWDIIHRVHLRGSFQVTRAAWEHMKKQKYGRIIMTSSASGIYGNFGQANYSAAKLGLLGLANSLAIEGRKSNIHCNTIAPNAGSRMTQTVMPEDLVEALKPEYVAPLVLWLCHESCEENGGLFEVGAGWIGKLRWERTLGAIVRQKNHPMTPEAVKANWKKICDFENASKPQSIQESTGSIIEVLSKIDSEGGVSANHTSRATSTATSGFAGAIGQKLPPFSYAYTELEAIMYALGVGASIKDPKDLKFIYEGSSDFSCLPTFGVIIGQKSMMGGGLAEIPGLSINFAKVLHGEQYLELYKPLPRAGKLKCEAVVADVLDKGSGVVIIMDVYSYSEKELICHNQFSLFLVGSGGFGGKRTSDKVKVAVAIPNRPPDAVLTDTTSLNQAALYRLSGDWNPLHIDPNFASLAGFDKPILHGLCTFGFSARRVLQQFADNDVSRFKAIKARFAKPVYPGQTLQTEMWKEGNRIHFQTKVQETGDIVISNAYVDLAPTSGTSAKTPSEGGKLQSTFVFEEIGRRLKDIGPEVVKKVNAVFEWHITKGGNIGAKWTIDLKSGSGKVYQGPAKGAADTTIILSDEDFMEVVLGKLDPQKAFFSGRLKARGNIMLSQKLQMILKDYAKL

[2] = biological target: T2, 17β-Hydroxysteroid dehydrogenase type 4 (HSD17B4), endogenous (human (endogenous in LNCaP)) (UniProt P51659); test: co-IP; endogenous proteins from LNCaP lysate, detected by western blotting; cells cultured with or without DHT for 24 h (Figures 5C, 6F) or untreated (Figure 7D); lysis in 0.3% Nonidet P40, 150 mM NaCl, 50 mM Tris-HCl pH 7.5; which protein was precipitated is not told
T2 sequence: T1 sequence

Q: Which binding [1] does the source give for “Heat Shock Protein Family A Member 8 (HSC70) (from UniProt P11142 1-646)” here?
A: binds

Q: What about the binding [2] of the same substance?
A: binds

Q: “CREBBP, endogenous (from UniProt Q92793 1-2442) (enzyme)” was tested. Which binding [2] did it give?
A: binds
